Laboratory results published in patent US12002595B2, “Separation of metal ions by liquid-liquid extraction” (priority 2016, dated 2024).

Assays:
[1] = Extraction of plutonium(IV) by HDEHP as a function of pH with hold-back reagent; conditions: 40 mM hold-back reagent, 0.5 M HDEHP
Protocol: All liquid-liquid extractions were conducted using a 1:1 organic to aqueous phase ratio for a total volume of 1 mL. Samples were pH adjusted by HNO3 and prepared for a final concentration of 1.0 M sodium lactate, 40 mM of hold-back reagent (160 mM in the case of the HOPO monomer), and 2.0 M Na^+. The concentration of the trivalent f-element was dependent on the availability and radioactivity of the isotopes. The organic phase consisted of 0.5 M HDEHP in kerosene. All samples were incubated in a thermostatic shaker held at 28° C. and rocked at 280 rpm for 90 minutes. To ensure complete phase separation, samples were left overnight at room temperature to equilibrate. Radioactive samples were analyzed by liquid scintillation counting (LSC). The analytical protocol consisted of diluting 10 uL of radioactive sample into 10 mL of Ultima Gold™. Ultima Gold™ is a commercially available analytical reagent commonly used for LSC. The resulting analytical samples were shaken for 10 min prior to counting on a Perkin-Elmer Packard Tri-Carb instrument (model B4430).
Data was analyzed by the distribution ratio (Dm), separation factor (SFm1/m2) and extraction percentage (% Extraction) as defined by Equations (6), (7) and (8), respectively. Equation (8) uses concentrations of the metal in each phase since the aqueous: organic ratio was 1. Both the organic and aqueous phases were analyzed after liquid-liquid extraction and phase separation. These calculation methods rely on the assumptions that no metal (M) is lost to sorption or precipitation and that no volume variation occurred during the mass transfer between the aqueous and organic phases.
In FIG. 18, aqueous phase: [ligand]=40 mM, buffer sodium lactate/sodium nitrate, organic phase: [HDEHP]=0.5 M, kerosene diluent. T=25° C. O/A=1, one contact. Initial metal concentrations: [Pu-242]=5 μM. Phases analyzed after one contact. Contact time: 30 min. Limit of detection: 0.03% of the initial Pu-242 activity. Data for separation of tetravalent metal ions from trivalent metal ions using 3,4,3-LI(1,2-HOPO) as a hold-back reagent for tetravalent metal ions are shown in TABLE 0.1.

[2] = Extraction by HDEHP at constant pH with 3,4,3-LI(1,2-HOPO) as hold-back reagent; conditions: 1 mM ligand, 0.1 M HNO3/1.9 M NaNO3
Protocol: (§1) In FIG. 26, aqueous phase: [ligand]=1 mM, buffer 0.1 M HNO3/1.9 M NaNO3. Organic phase: HDEHP diluted in kerosene. [HDEHP]=0.05, 0.10, 0.25, 0.50, 1.0, or 2.0 M. T=25° C. Volume organic phase/Volume aqueous phase=1. Initial metal concentrations: [Pu-242]=10 μM, [Am-243]=0.25 μM, or [Gd-153]=0.16 nM. Phases analyzed after one contact. Contact time: 30 min.
The separation factor values given here must been seen as lower limit since the extraction of Pu(IV) is near zero.
as §1, with “28,” for “26,”, “concentrations:” for “concentrations: [Pu-242]=10 μM,”, “min. Corresponding separation factors (SF) are given on the right Y-axis. SF Gd/Am=Ratio [Gd]/[Am] in the final organic phase/Ratio [Gd]/[Am] in the initial aqueous solution.” for “min.”

[3] = as above; conditions: 1 mM ligand, 0.1 M HNO3/1.9 M NaNO3; remark: listed apart in the source
Protocol: as §1
The separation factor values given here must been seen as lower limit since the extraction of Pu(IV) is near zero. […]

[4] = Separation of ^249Bk and ^249Cf at the mCi level using TODGA and 343HOPO
[5] = Aqueous phase, O/A = 0.5, [343HOPO] = 1 mM
[6] = Aqueous phase, O/A = 1.0, [343HOPO] = 1 mM
[7] = Aqueous phase, O/A = 1.0, [343HOPO] = 5 mM
[8] = Aqueous phase, O/A = 1.0, [343HOPO] = 25 mM
[9] = Aqueous phase, O/A = 2.0, [343HOPO] = 1 mM
[10] = Organic phase, O/A = 0.5, [343HOPO] = 1 mM
[11] = Organic phase, O/A = 1.0, [343HOPO] = 1 mM
[12] = Organic phase, O/A = 1.0, [343HOPO] = 5 mM
[13] = Organic phase, O/A = 1.0, [343HOPO] = 25 mM
[14] = Organic phase, O/A = 2.0, [343HOPO] = 1 mM

O=C(NCCCN(CCCCN(CCCNC(=O)c1cccc(=O)n1O)C(=O)c1cccc(=O)n1O)C(=O)c1cccc(=O)n1O)c1cccc(=O)n1O [3,4,3-LI(1,2-HOPO)]
Activity in aqueous phase (cpm) ([1]; pH 0.25): 2791 cpm | Activity in organic phase (cpm) ([1]; pH 0.25): 0 cpm | Activity in aqueous phase (cpm) ([1]; pH 0.85): 3325 cpm | Activity in organic phase (cpm) ([1]; pH 0.85): 0 cpm | Activity in aqueous phase (cpm) ([1]; pH 1.78): 3310 cpm | Activity in organic phase (cpm) ([1]; pH 1.78): 0 cpm | Activity in aqueous phase (cpm) ([1]; pH 2.71): 3219 cpm | Activity in organic phase (cpm) ([1]; pH 2.71): 0 cpm | Activity in aqueous phase (cpm) ([1]; pH 2.87): 3339 cpm | Activity in organic phase (cpm) ([1]; pH 2.87): 0 cpm | Activity in aqueous phase (cpm) ([1]; pH 3.62): 3185 cpm | Activity in organic phase (cpm) ([1]; pH 3.62): 0 cpm | Activity in aqueous phase (cpm) ([1]; pH 4.52): 2896 cpm | Activity in organic phase (cpm) ([1]; pH 4.52): 0 cpm | Activity in aqueous phase (cpm) ([2]; HDEHP 0.05 M): 2326 cpm | Activity in organic phase (cpm) ([2]; HDEHP 0.05 M): 5 cpm | Activity in aqueous phase (cpm) ([2]; HDEHP 0.10 M): 2237 cpm | Activity in organic phase (cpm) ([2]; HDEHP 0.10 M): 30 cpm | Activity in aqueous phase (cpm) ([2]; HDEHP 0.25 M): 2195 cpm | Activity in organic phase (cpm) ([2]; HDEHP 0.25 M): 246 cpm | Activity in aqueous phase (cpm) ([2]; HDEHP 0.50 M): 1693 cpm | Activity in organic phase (cpm) ([2]; HDEHP 0.50 M): 735 cpm | Activity in aqueous phase (cpm) ([2]; HDEHP 1.00 M): 1297 cpm | Activity in organic phase (cpm) ([2]; HDEHP 1.00 M): 1296 cpm | Activity in aqueous phase (cpm) ([2]; HDEHP 2.00 M): 952 cpm | Activity in organic phase (cpm) ([2]; HDEHP 2.00 M): 1277 cpm | Activity in aqueous phase (cpm) ([3]; HDEHP 0.05 M): 48361 cpm | Activity in organic phase (cpm) ([3]; HDEHP 0.05 M): 2505 cpm | Activity in aqueous phase (cpm) ([3]; HDEHP 0.10 M): 38983 cpm | Activity in organic phase (cpm) ([3]; HDEHP 0.10 M): 12170 cpm | Activity in aqueous phase (cpm) ([3]; HDEHP 0.25 M): 14376 cpm | Activity in organic phase (cpm) ([3]; HDEHP 0.25 M): 40716 cpm | Activity in aqueous phase (cpm) ([3]; HDEHP 0.50 M): 4362 cpm | Activity in organic phase (cpm) ([3]; HDEHP 0.50 M): 51171 cpm | Activity in aqueous phase (cpm) ([3]; HDEHP 1.00 M): 1207 cpm | Activity in organic phase (cpm) ([3]; HDEHP 1.00 M): 55033 cpm | Activity in aqueous phase (cpm) ([3]; HDEHP 2.00 M): 419 cpm | Activity in organic phase (cpm) ([3]; HDEHP 2.00 M): 56084 cpm | Chemical purity, Bk [4, 5]: Bk: >99.8% | Radiopurity, Bk [4, 5]: Bk: >99.999% | Chemical purity, Bk [4, 6]: Bk: >99.8% | Radiopurity, Bk [4, 6]: Bk: >99.999% | Chemical purity, Bk [4, 7]: Bk: >99.8% | Radiopurity, Bk [4, 7]: Bk: >99.999% | Chemical purity, Bk [4, 8]: Bk: >99.8% | Radiopurity, Bk [4, 8]: Bk: >99.999% | Chemical purity, Bk [4, 9]: Bk: >99.8% | Radiopurity, Bk [4, 9]: Bk: >99.999% | Chemical purity, Cf [4, 10]: Cf: 99.71% | Radiopurity, Bk [4, 10]: Bk: 52.70% | Radiopurity, Cf [4, 10]: Cf: 47.30% | Chemical purity, Cf [4, 11]: Cf: 99.5% | Radiopurity, Bk [4, 11]: Bk: 64.85% | Radiopurity, Cf [4, 11]: Cf: 35.15% | Chemical purity, Cf [4, 12]: Cf: 99.0% | Radiopurity, Bk [4, 12]: Bk: 79.72% | Radiopurity, Cf [4, 12]: Cf: 20.28% | Chemical purity, Cf [4, 13]: Cf: 98.6% | Radiopurity, Bk [4, 13]: Bk: 84.94% | Radiopurity, Cf [4, 13]: Cf: 15.06% | Chemical purity, Cf [4, 14]: Cf: 99.4% | Radiopurity, Bk [4, 14]: Bk: 70.60% | Radiopurity, Cf [4, 14]: Cf: 29.40% | chemical purity of ^249Bk in the aqueous phase ([4]; single step, 3 M HNO3, TODGA): > 99.8% | chemical purity of ^249Cf in the organic phase ([4]; single step, 3 M HNO3, TODGA): > 99.5% | radiopurity of ^249Bk recovered in the aqueous phase ([4]; single step, 3 M HNO3, TODGA): > 99.999%

O=C(O)CN(CCN(CC(=O)O)CC(=O)O)CCN(CC(=O)O)CC(=O)O [DTPA, Diethylenetriaminepentaacetic acid, reference compound]
Activity in aqueous phase (cpm) ([1]; pH 0.40): 209 cpm | Activity in organic phase (cpm) ([1]; pH 0.40): 4181 cpm | Activity in aqueous phase (cpm) ([1]; pH 1.27): 2585 cpm | Activity in organic phase (cpm) ([1]; pH 1.27): 110 cpm | Activity in aqueous phase (cpm) ([1]; pH 1.84): 2951 cpm | Activity in organic phase (cpm) ([1]; pH 1.84): 35 cpm | Activity in aqueous phase (cpm) ([1]; pH 2.55): 2995 cpm | Activity in organic phase (cpm) ([1]; pH 2.55): 19 cpm | Activity in aqueous phase (cpm) ([1]; pH 2.75): 3121 cpm | Activity in organic phase (cpm) ([1]; pH 2.75): 23 cpm | Activity in aqueous phase (cpm) ([1]; pH 3.45): 3379 cpm | Activity in organic phase (cpm) ([1]; pH 3.45): 22 cpm | Activity in aqueous phase (cpm) ([1]; pH 4.29): 3491 cpm | Activity in organic phase (cpm) ([1]; pH 4.29): 10 cpm
